Results published in US20120329721A1, “MEANS FOR PREVENTING AND TREATING CELLULAR DEATH AND THEIR BIOLOGICAL APPLICATIONS” (CHIESI FARMACEUTICI S.P.A., priority 2003, published 2012).

Test system: primary cortical neurons
Conditions: Swiss, mouse

## NS(=O)(=O)c1cc(C(=O)O)c(NCc2ccco2)cc1Cl [furosemide]
  concentration toxic for cortical neurons: more than 3 mM
